Source: PubChem BioAssay AID1259254 (NCATS, 2017)

- Assay: 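Genome-wide screen for genes that prevent DNA re-replication in cancer cells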 (primary screen)
- Cell system: human HCT116 colorectal cancer cells
- Knock-down reagent: single siRNA against human genes
- Duration: 3 days
- Measured: 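Imaged Hoechst DNA stain sorts each cell into a cycle phase by DNA amount; per plate, G2 fraction set to 0% for non-targeting and 100% for GMNN siRNA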
- Direction: G2 robust z-score and G2 cells, % of GMNN control: higher = more G2 cells, more excess DNA replication
- Rule for the call: 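An siRNA counts as active if its G2 robust z-score lies at least 5 MADs above the screen median; here such calls match roughly 38% of GMNN control or more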
The whole screen tested about 59,000 reagents; below is an unselected part. In the full data, about 1,550 (2.6%) are marked active. 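G2 share is only a proxy for re-replication; each gene was hit by three separate siRNAs, and active genes were retested.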 Reagents against one gene are numbered here. Not all columns of the deposit are shown. Not stated in the record: the amount of reagent.

GPR68 #1 — G2 robust z-score: -0.269; G2 cells, % of GMNN control: 1.07; outcome: inactive
GPR68 #2 — G2 robust z-score: -1.12; G2 cells, % of GMNN control: -4.9; outcome: inactive
GPR68 #3 — G2 robust z-score: -0.339; G2 cells, % of GMNN control: 0.585; outcome: inactive
PRSS54 #1 — G2 robust z-score: 1.78; G2 cells, % of GMNN control: 15.5; outcome: inactive
PRSS54 #2 — G2 robust z-score: -0.474; G2 cells, % of GMNN control: -0.367; outcome: inactive
PRSS54 #3 — G2 robust z-score: 1.05; G2 cells, % of GMNN control: 10.3; outcome: inactive
HSF1 #1 — G2 robust z-score: 3.53; G2 cells, % of GMNN control: 27.8; outcome: inactive
HSF1 #2 — G2 robust z-score: -0.15; G2 cells, % of GMNN control: 1.91; outcome: inactive
HSF1 #3 — G2 robust z-score: 0.0844; G2 cells, % of GMNN control: 3.56; outcome: inactive
INHBB #1 — G2 robust z-score: 1.25; G2 cells, % of GMNN control: 11.7; outcome: inactive
INHBB #2 — G2 robust z-score: 0.576; G2 cells, % of GMNN control: 7.02; outcome: inactive
INHBB #3 — G2 robust z-score: 2.16; G2 cells, % of GMNN control: 18.1; outcome: inactive
FMR1NB #1 — G2 robust z-score: -0.185; G2 cells, % of GMNN control: 1.67; outcome: inactive
FMR1NB #2 — G2 robust z-score: -1.14; G2 cells, % of GMNN control: -5.02; outcome: inactive
FMR1NB #3 — G2 robust z-score: 2.79; G2 cells, % of GMNN control: 22.6; outcome: inactive
KRTAP9-3 #1 — G2 robust z-score: 0.741; G2 cells, % of GMNN control: 8.18; outcome: inactive
KRTAP9-3 #2 — G2 robust z-score: 0.864; G2 cells, % of GMNN control: 9.05; outcome: inactive
KRTAP9-3 #3 — G2 robust z-score: 1.92; G2 cells, % of GMNN control: 16.5; outcome: inactive
ACO2P1 #1 — G2 robust z-score: -0.947; G2 cells, % of GMNN control: -3.7; outcome: inactive
ACO2P1 #2 — G2 robust z-score: -0.522; G2 cells, % of GMNN control: -0.706; outcome: inactive
ACO2P1 #3 — G2 robust z-score: -0.0455; G2 cells, % of GMNN control: 2.65; outcome: inactive
B4GALNT4 #1 — G2 robust z-score: 3.8; G2 cells, % of GMNN control: 29.7; outcome: inactive
B4GALNT4 #2 — G2 robust z-score: -0.368; G2 cells, % of GMNN control: 0.38; outcome: inactive
B4GALNT4 #3 — G2 robust z-score: 0.327; G2 cells, % of GMNN control: 5.27; outcome: inactive

An excerpt from above, showing only “G2 robust z-score”:
ACO2P1 #3	-0.0455
B4GALNT4 #1	3.8
